Where a name gives a salt, the structure may show the parent alone. ± gives the standard deviation of the averaged measurements. The list shows a part of the results. This is a noisy data set.

For this assay, the system named is Salmonella enterica serovar Typhimurium ST313 D23580. The assay can be described thus: normalized bacterial growth (OD600 20 h minus 0 h, interquartile-mean normalized) (fraction of plate interquartile mean); higher = more bacterial growth (less inhibition). Particulars: LPM (pH 5.8, low phosphate, low Mg2+), concentration: 10 µM, temperature: 37 °C.
The molecule `c1ccc(/N=N/c2ccccc2)cc1` showed a normalized bacterial growth of 0.938.

Take `COC(=O)c1cc2c(cn1)[nH]c1ccccc12` [Methyl beta-carboline-3-carboxylate]: the normalized bacterial growth was found to be 0.479. With `O=C1C(Cl)=C(Cl)C(=O)C(Cl)=C1Cl`, the normalized bacterial growth came out at 0.724. With `CN1C2CC(=O)CC1C(O)C2` (stereo not given) [6-Hydroxytropinone] the figure was 1.17; with `C[C@@H]1CC[C@]2(NC1)O[C@H]1C[C@H]3[C@@H]4CC=C5C[C@@H](O)CC[C@]5(C)[C@H]4CC[C@]3(C)[C@H]1[C@@H]2C` [Solasodine], 1.25. Consider `C[C@@H]1CC[C@]2(NC1)O[C@H]1C[C@H]3[C@@H]4CC=C5C[C@@H](O)CC[C@]5(C)[C@H]4CC[C@]3(C)[C@H]1[C@@H]2C`, for which the normalized bacterial growth was found to be 0.959 ± 0.017. `Cc1ncc(C[n+]2csc(CCO)c2C)c(=O)[nH]1` came in with a normalized bacterial growth of 0.964. The value for `C[C@@H]1O[C@@H](O[C@H]2CC[C@H](O[C@H]3[C@H](O)C[C@H](c4ccc5c(c4O)C(=O)C4=C(C5=O)[C@@]5(O)C(=O)C[C@](C)(O[C@H]6CC[C@H](O[C@H]7C=CC(=O)[C@H](C)O7)[C@H](C)O6)C[C@@]5(O)C=C4)O[C@@H]3C)O[C@H]2C)C=CC1=O` was 0.442.

Take `COc1ccc(OC)c(C(O)C(C)N)c1` (stereo not given) [Methoxamine hydrochloride]: the normalized bacterial growth stood at 1.2. With `CCC(=O)O[C@H]1CC[C@H]2[C@@H]3CCC4=CC(=O)CC[C@]4(C)[C@H]3CC[C@]12C` the figure was 0.462. Turning to `CCC(=O)O[C@H]1CC[C@H]2[C@@H]3CCC4=CC(=O)CC[C@]4(C)[C@H]3CC[C@]12C` [Testosterone propionate], the normalized bacterial growth was 0.706.

As to `C[N+]1(C)C2CCC1CC(OC(=O)c1c[nH]c3ccccc13)C2` (stereo not given) [3-Tropanylindole-3-carboxylate methiodide], the normalized bacterial growth came out at 1.31.

In turn, `N#C/C(=C\c1ccc(O)c(O)c1)C(N)=S` [Tyrphostin 47] returned a normalized bacterial growth of 1.15.

In turn, `c1ccc2sc(C3(N4CCCCC4)CCCCC3)cc2c1` [BTCP hydrochloride] came in with a normalized bacterial growth of 1.01.

`COc1cc2c(cc1O)C[C@H]1c3c(cc(O)c(OC)c3-2)CCN1C` showed a normalized bacterial growth of 0.994 ± 0.034.

`C[C@H]1CC[C@]2(NC1)O[C@H]1C[C@H]3[C@@H]4CC[C@H]5C[C@@H](O[C@@H]6O[C@H](CO)[C@H](O[C@@H]7O[C@H](CO)[C@@H](O)[C@H](O[C@@H]8OC[C@@H](O)[C@H](O)[C@H]8O)[C@H]7O[C@@H]7O[C@H](CO)[C@@H](O)[C@H](O)[C@H]7O)[C@H](O)[C@H]6O)CC[C@]5(C)[C@H]4CC[C@]3(C)[C@H]1[C@@H]2C` [Tomatine] came in with a normalized bacterial growth of 0.798. With `C[C@H]1CC[C@]2(NC1)O[C@H]1C[C@H]3[C@@H]4CC[C@H]5C[C@@H](O[C@@H]6O[C@H](CO)[C@H](O[C@@H]7O[C@H](CO)[C@@H](O)[C@H](O[C@@H]8OC[C@@H](O)[C@H](O)[C@H]8O)[C@H]7O[C@@H]7O[C@H](CO)[C@@H](O)[C@H](O)[C@H]7O)[C@H](O)[C@H]6O)CC[C@]5(C)[C@H]4CC[C@]3(C)[C@H]1[C@@H]2C` the figure was 0.852; with `CC1(C)C(=O)C=C[C@@]2(C)C1=C(O)C(=O)[C@]1(C)[C@@H]2CC[C@@]2(C)[C@H](c3ccoc3)C[C@H]3O[C@]321`, 0.972. The molecule `C[C@H]1OC[C@@H](C[N+](C)(C)C)O1` [(+)-cis-Dioxolane] came in with a normalized bacterial growth of 1.15. On to `COc1ccc(C(=O)OC2C[C@H]3CC[C@@H](C2)N3C)cc1OC` (stereo not given in full) [Convolamine hydrochloride], for which the normalized bacterial growth amounted to 1.02. Turning to `O=C(CCCN1CCC(n2c(=O)[nH]c3ccccc32)CC1)c1ccc(F)cc1` [Benperidol], the normalized bacterial growth stood at 0.996. Consider `O=C1CCO1`, for which the normalized bacterial growth was determined as 0.878. For the molecule `Cc1c(O)c(O)cc2c1CC=C1[C@@]2(C)CC[C@@]2(C)[C@@H]3C[C@](C)(C(=O)O)CC[C@]3(C)CC[C@]12C`, the normalized bacterial growth stood at 1.34. With `CC(=O)O[C@@H]1C[C@H]2C(C)(C)C(=O)C=C[C@]2(C)[C@H]2CC[C@]3(C)C(=CC(=O)O[C@H]3c3ccoc3)[C@@]21C` the figure was 0.778; with `OC(c1ccccc1)(c1ccccc1)C1CCNCC1` [Azacyclonol], 1.14; with `NC1CCc2cc(O)c(O)cc2C1` (stereo not given) ["6,7-ADTN hydrobromide"], 1.21. With `N[C@@H]1C[C@H]1c1ccccc1.N[C@H]1C[C@@H]1c1ccccc1` the figure was 1.11; with `C[N+]1(C)CCCC(OC(=O)C(O)(c2ccccc2)c2ccccc2)C1` (stereo not given), 1.15; with `COc1cc(OC)c(OC)cc1C=O`, 1.07. On to `CN1C2CCC1CC(O)C2` (stereo not given), for which the normalized bacterial growth stood at 1.24 ± 0.26.

As for `COc1cc([C@@H]2c3cc4c(cc3[C@@H](O)[C@H]3COC(=O)[C@H]23)OCO4)cc(OC)c1O`, the normalized bacterial growth is 1.02. Take `C/C(O)=C(\C#N)C(=O)Nc1cc(Br)ccc1Br`: the normalized bacterial growth came to 1.24.

In turn, `C[C@@]12C(=O)OC(=O)[C@]1(C)[C@H]1CC[C@@H]2O1` [Cantharidin] displayed a normalized bacterial growth of 0.541. `C[C@@]12C(=O)OC(=O)[C@]1(C)[C@H]1CC[C@@H]2O1` came in with a normalized bacterial growth of 1.1 ± 0.49.

`COC(C)(C)CCC[C@H](C)C/C=C/C(C)=C/C(=O)OC(C)C` yielded a normalized bacterial growth of 1.09. `CCC1(C)CC(=O)NC(=O)C1` [Bemegride] had a normalized bacterial growth of 0.851. For `CCCC(C)(COC(N)=O)COC(=O)NC(C)C` (stereo not given) [Carisoprodol], the normalized bacterial growth worked out at 1.08.

On to `Oc1ccc(Cl)cc1Cc1cc(Cl)ccc1O`, for which the normalized bacterial growth turned out to be 0.854. On to `Cl[C@H]1[C@H](Cl)[C@@H](Cl)[C@@H](Cl)[C@H](Cl)[C@H]1Cl`, for which the normalized bacterial growth came out at 1.12. `COc1ccc(CC2c3cc(OC)c(OC)cc3CCN2C)cc1OC` (racemic) ["Laudanosine (R,S)"] registered a normalized bacterial growth of 1.27.

The record behind these values is the supplement of paper PMC10398353.
